From the supplement of paper PMC10849652
The list shows a part of the results.

Amino acid sequences for entries named in this document (tags omitted). A change or cut given only in a name is not applied to a line headed by its entry.
UniProt Q86XT9, whole entry, looked up: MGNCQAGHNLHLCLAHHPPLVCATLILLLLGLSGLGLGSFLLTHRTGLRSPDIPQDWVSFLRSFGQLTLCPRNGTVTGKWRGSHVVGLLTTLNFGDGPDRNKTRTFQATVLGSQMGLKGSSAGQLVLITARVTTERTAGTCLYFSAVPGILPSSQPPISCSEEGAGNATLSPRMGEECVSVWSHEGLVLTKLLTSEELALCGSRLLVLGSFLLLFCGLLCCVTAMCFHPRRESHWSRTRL
UniProt Q8NCS4: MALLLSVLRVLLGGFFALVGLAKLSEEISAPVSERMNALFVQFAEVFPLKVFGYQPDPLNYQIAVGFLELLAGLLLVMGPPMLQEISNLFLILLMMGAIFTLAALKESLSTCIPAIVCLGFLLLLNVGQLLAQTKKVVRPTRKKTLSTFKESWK
UniProt P21580: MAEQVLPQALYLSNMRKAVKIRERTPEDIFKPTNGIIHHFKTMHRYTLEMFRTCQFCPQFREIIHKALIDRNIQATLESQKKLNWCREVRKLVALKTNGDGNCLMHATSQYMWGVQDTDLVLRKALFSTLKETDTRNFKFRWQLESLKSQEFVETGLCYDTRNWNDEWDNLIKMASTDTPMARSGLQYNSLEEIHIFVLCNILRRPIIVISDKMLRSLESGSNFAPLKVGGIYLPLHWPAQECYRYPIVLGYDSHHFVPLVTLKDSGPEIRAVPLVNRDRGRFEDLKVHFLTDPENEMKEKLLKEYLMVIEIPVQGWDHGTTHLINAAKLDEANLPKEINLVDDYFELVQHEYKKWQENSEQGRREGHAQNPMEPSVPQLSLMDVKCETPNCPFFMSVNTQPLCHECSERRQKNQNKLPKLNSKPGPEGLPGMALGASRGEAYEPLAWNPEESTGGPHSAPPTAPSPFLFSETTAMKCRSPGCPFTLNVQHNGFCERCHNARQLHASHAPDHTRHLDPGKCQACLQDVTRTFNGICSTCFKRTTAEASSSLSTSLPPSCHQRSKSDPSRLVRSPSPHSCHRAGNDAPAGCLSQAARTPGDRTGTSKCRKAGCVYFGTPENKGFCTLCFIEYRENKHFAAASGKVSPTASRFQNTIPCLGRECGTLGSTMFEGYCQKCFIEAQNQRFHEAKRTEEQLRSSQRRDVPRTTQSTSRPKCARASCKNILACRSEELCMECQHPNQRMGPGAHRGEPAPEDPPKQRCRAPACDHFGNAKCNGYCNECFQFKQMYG
UniProt Q96Q45: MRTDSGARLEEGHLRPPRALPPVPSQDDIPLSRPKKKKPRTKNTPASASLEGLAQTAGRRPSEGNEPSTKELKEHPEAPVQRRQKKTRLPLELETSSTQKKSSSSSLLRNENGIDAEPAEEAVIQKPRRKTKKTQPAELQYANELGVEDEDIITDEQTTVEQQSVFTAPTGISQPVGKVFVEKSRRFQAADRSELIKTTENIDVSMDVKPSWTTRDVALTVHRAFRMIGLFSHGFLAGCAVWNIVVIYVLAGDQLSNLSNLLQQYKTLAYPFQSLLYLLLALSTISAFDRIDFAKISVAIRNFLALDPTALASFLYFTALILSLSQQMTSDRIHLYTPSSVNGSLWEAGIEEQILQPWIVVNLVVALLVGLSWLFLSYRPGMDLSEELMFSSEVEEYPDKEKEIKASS
UniProt Q9BZW5, whole entry, looked up: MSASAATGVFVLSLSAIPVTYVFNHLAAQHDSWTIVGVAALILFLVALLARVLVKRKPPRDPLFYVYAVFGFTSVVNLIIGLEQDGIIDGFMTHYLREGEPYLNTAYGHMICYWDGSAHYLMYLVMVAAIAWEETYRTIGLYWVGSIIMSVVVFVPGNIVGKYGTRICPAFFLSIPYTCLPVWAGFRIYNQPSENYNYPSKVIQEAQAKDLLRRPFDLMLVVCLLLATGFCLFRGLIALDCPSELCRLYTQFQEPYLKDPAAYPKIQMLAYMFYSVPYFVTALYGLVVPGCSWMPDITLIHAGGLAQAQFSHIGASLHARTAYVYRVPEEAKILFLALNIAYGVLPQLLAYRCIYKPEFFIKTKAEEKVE
UniProt Q9H6X4: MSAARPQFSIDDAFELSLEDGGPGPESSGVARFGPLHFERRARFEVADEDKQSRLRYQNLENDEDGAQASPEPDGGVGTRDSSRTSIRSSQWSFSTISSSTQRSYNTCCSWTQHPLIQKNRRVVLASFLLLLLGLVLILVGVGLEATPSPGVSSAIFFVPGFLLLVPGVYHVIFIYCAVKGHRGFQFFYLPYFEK
UniProt A0PK00: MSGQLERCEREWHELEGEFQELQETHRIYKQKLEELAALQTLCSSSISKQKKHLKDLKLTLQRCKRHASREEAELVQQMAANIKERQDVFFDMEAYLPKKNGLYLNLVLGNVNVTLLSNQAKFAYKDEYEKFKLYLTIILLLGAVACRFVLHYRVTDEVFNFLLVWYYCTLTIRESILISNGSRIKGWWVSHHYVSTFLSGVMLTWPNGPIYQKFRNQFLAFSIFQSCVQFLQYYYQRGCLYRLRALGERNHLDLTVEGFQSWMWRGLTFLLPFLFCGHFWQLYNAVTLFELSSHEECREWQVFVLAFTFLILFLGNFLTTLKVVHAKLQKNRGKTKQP
UniProt Q96DC7: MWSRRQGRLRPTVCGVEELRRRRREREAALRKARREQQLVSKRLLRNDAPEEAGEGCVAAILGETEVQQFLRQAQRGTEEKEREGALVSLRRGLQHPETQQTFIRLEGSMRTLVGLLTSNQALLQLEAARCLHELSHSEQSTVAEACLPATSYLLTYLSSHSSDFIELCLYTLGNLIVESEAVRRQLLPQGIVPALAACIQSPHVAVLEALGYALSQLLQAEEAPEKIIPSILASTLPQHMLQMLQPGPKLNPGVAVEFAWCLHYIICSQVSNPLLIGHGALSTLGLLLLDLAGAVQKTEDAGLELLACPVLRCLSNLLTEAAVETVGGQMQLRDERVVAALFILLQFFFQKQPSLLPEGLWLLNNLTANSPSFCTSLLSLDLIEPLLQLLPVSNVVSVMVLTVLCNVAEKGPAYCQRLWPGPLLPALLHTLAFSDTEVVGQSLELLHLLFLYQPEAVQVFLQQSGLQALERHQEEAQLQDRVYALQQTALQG
UniProt Q96B96: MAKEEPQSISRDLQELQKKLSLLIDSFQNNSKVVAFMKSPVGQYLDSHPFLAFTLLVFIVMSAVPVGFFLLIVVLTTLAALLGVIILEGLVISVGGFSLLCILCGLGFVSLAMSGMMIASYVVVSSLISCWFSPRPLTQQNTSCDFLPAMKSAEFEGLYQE
UniProt Q92545: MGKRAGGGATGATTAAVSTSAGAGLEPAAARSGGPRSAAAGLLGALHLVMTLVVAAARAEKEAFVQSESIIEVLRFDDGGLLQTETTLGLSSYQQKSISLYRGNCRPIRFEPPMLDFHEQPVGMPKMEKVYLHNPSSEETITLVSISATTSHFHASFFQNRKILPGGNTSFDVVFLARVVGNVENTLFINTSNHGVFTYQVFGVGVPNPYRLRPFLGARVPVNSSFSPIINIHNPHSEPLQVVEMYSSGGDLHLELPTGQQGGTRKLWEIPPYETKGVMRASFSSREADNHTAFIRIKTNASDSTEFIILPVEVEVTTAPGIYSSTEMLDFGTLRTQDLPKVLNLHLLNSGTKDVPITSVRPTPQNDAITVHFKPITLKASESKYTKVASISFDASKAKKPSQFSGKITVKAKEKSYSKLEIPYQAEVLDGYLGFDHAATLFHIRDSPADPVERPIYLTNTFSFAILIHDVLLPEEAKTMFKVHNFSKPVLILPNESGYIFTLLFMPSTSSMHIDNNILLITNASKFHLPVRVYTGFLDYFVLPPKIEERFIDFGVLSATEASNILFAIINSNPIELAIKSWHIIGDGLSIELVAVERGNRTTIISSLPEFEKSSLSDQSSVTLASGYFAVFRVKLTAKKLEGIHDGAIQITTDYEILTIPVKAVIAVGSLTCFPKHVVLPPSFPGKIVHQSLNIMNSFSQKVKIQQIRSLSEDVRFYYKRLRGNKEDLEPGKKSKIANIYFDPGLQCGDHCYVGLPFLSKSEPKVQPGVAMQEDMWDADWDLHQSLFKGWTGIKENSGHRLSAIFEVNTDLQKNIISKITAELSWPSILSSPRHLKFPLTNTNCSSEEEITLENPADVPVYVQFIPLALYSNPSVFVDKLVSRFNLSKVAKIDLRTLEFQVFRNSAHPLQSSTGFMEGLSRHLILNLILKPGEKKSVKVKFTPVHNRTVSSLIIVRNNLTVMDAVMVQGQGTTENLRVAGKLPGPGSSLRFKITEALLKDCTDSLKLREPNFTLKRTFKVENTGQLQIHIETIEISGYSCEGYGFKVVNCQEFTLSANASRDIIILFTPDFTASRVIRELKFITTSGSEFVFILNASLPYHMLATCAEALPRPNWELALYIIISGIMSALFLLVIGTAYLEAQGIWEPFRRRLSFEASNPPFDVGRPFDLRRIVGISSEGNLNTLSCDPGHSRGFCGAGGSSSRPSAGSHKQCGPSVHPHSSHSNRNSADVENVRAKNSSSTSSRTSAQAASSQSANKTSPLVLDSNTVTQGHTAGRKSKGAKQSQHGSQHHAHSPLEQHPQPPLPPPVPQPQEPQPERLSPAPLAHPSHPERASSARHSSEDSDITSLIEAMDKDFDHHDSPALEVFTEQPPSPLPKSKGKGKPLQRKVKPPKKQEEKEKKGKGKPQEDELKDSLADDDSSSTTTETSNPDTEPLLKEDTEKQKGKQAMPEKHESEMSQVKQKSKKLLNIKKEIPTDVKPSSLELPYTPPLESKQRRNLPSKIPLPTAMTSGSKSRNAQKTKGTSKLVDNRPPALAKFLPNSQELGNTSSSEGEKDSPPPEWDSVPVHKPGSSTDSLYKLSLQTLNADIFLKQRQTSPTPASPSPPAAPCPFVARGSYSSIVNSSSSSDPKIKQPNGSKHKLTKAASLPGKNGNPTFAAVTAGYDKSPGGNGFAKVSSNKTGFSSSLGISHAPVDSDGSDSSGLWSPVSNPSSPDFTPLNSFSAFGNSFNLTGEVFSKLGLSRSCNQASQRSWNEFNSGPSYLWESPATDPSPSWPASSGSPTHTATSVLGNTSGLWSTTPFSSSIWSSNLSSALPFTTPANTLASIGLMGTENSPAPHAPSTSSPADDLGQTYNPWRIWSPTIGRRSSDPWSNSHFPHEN
UniProt Q9BVX2: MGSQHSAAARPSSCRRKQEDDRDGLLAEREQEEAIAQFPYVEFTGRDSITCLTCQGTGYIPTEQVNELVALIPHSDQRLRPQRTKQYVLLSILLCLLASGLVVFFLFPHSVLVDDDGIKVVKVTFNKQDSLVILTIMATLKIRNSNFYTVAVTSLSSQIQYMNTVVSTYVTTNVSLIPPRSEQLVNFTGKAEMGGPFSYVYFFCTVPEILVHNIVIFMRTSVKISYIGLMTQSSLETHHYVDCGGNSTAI
UniProt Q5T292: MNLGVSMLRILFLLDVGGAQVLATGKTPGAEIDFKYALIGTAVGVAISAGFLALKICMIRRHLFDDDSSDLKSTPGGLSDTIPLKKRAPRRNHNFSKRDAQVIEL
UniProt O95807: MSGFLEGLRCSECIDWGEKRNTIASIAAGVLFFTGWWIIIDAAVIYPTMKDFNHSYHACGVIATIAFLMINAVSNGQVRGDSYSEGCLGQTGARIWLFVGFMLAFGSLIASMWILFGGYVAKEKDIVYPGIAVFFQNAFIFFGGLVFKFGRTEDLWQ
UniProt Q9NR96: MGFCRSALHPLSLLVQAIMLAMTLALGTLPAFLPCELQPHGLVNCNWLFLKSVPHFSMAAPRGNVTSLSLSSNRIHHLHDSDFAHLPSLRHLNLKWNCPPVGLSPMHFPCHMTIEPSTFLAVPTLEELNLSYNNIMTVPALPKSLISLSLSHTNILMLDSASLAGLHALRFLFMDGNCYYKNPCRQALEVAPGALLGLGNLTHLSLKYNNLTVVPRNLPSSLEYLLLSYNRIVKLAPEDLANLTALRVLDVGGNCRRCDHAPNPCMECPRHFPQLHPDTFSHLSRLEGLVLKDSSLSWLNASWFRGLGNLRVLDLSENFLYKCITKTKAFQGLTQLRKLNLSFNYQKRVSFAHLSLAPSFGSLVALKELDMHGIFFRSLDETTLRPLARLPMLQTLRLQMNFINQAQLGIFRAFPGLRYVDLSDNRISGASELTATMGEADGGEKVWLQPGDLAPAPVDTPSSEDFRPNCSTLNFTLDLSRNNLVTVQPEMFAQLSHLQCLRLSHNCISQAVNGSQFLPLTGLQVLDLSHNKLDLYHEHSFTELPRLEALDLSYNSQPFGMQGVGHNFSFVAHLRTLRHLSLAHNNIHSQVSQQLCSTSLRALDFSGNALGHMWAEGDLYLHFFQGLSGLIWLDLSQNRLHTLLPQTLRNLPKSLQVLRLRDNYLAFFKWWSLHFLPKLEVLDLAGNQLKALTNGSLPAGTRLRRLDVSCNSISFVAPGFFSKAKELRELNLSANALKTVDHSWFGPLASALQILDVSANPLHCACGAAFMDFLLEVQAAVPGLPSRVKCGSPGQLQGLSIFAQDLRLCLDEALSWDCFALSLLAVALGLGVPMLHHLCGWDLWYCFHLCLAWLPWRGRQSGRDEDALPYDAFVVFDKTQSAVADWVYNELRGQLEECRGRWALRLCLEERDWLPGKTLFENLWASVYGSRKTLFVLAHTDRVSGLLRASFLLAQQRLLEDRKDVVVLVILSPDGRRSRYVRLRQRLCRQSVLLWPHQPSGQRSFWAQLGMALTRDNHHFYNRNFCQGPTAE

Compound: CCn1cc(-c2ccnc3[nH]c(-c4cccc(CN(C)C)c4)cc23)c(-c2ccc(NC(=O)N(C)C)cc2)n1
Test: log2 fold change, soluble protein after heating vs DMSO (PISA); higher = thermal stabilisation; K562 cells, 10 uM, 30 min; active = over 0.2 and 3.5 SD of the protein, either way, in both replicates (recomputed)
In short: (§1)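 K562 cells at 2×10^6 cells/mL were treated with 10 μM compound for 30 min. Aliquots were heated for 3 min across 48°C-58°C, pooled, and extracted in PBS with 0.5% NP-40 at 4°C; soluble protein was the supernatant after 21,000xg for 90 min. Soluble protein was quantified by TMTpro 16plex LC-MS/MS with channel sums equalised, and reported as log2 fold change in thermal stability against DMSO controls, with values from duplicates.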

log2 fold change, inactive:
TMEM219 (UniProt Q86XT9) 0.037
TMEM35B (UniProt Q8NCS4) -0.075
TMEM184C (UniProt Q9NVA4) 0.08
TNFAIP3 (UniProt P21580) 0.019
TNFRSF1A (UniProt P19438) -0.127
TMEM237 isoform 3 (UniProt Q96Q45) 0.301
TMCO3 (UniProt Q6UWJ1) 0.035
TMEM201 (UniProt Q5SNT2) 0.004
TM6SF1 (UniProt Q9BZW5) 0
TMPO (UniProt G5E972) -0.067
TMEM59 (UniProt Q9BXS4) 0.122
TMEM134 (UniProt Q9H6X4) 0.157
TMCC1 (UniProt O94876) 0.136
TMEM120B (UniProt A0PK00) 0.108
TMCO6 isoform 2 (UniProt Q96DC7) 0.173
TMEM159 isoform 2 (UniProt Q96B96) 0.139
TMEM131 (UniProt Q92545) 0.175

Compound: CN(C)CC(=O)Nc1ccc2[nH]c(=O)c3ccccc3c2c1
Test: as above
In short: as §1

log2 fold change, inactive:
TMEM219 (UniProt Q86XT9) 0.094
TMEM35B (UniProt Q8NCS4) 0.068
TMEM184C (UniProt Q9NVA4) -0.013
TNFAIP3 (UniProt P21580) -0.039
TM7SF2 (UniProt O76062) -0.435
TMEM237 isoform 3 (UniProt Q96Q45) 0.105
TMCO3 (UniProt Q6UWJ1) 0.104
TM6SF1 (UniProt Q9BZW5) 0.011
TMEM106C (UniProt Q9BVX2) -0.189
TMEM147 (UniProt Q9BVK8) 0.292
TMEM273 isoform 2 (UniProt Q5T292) -0.086
TMEM50A (UniProt O95807) -0.032
TMEM120B (UniProt A0PK00) 0.075
TLR9 isoform 4 (UniProt Q9NR96) -0.013
